Source: article PMC12037411
These are yes or no findings as the source states them, for the method shown.

Tests used:
[1] = molecular target: USP54 catalytic domain, residues 21–369, wild type (human) (UniProt Q70EL1); assay: crystal structure; USP54 21-369 covalently conjugated to K63-linked diubiquitin–PA, 13 mg ml^−1; 100 mM HEPES pH 6.8, 27.2% PEG400, 200 mM CaCl2, 20 °C; four copies in the asymmetric unit; both purified
[2] = molecular target: USP54 catalytic domain, residues 21–369, wild type (human) (UniProt Q70EL1); assay: SEC-MALS; 60 µl at 2 mg ml^−1 on Superdex 75 Increase 10/300 in 20 mM Tris pH 8.0, 100 mM NaCl; USP54 21-369 alone, conjugated to ubiquitin–PA or to K63-linked diubiquitin–PA; both purified

binding [1]: no binding
binding [2]: no binding (tested: 2 mg ml^−1 injected)
B1: USP54 catalytic domain, residues 21–369, wild type (enzyme, UniProt Q70EL1 21-369)
chain: PRSSTSIAPSKGLSNEPGQNSCFLNSALQVLWHLDIFRRSFRQLTTHKCMGDSCIFCALKGIFNQFQCSSEKVLPSDTLRSALAKTFQDEQRFQLGIMDDAAECFENLLMRIHFHIADETKEDICTAQHCISHQKFAMTLFEQCVCTSCGATSDPLPFIQMVHYISTTSLCNQAICMLERREKPSPSMFGELLQNASTMGDLRNCPSNCGERIRIRRVLMNAPQIITIGLVWDSDHSDLAEDVIHSLGTCLKLGDLFFRVTDDRAKQSELYLVGMICYYGKHYSTFFFQTKIRKWMYFDDAHVKEIGPKWKDVVTKCIKGHYQPLLLLYADPQGTPVSTQDLPPQAEFQ
